{"source": "PubChem BioAssay AID1259275 (Sanger Institute, 2017)", "assay": "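Kinase and colorectal cancer genes needed for cancer cell survival, with or without drugs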 (primary screen)", "system": "COLO320HSR human colorectal cancer cells", "knock-down reagent": "siRNA pool against human genes", "challenge": "anchor drug added one day after transfection: BYL719 at 1 µM, cetuximab at 5 µg/ml or trametinib at 10 nM; DMSO as vehicle arm", "detection": "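Replicate-mean viability versus non-targeting pool control, robust z-score without drug, and per-drug synergy scores for BYL719 at 1 µM, cetuximab at 5 µg/ml and trametinib at 10 nM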", "reading the numbers": "robust z-score, siRNA alone: higher = more viable cells; strongly negative means essential; viability, knock-down alone (DMSO): higher = more viable cells", "rule for the call": "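Essential means the knock-down by itself gives a robust z-score lower than -3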", "meaning of the calls": "active = essential (siRNA alone); inactive = no change (siRNA alone)", "note": "This is an unselected part of 794 reagents. Of all reagents, 13 (1.6%) got an active call. 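Calls mark knock-downs lethal by themselves, not drug synergy; drugs went in a day after transfection, with DMSO as vehicle.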 Unmarked entries are inactive. Viability is capped at 1. Further read-outs or replicates are left out here. Not given: the amount of reagent, the time to read-out."}
{"Target gene": "DGKK (GeneID 139189)", "robust z-score, siRNA alone": -1.16, "viability, knock-down alone (DMSO) (fraction of control)": 0.829}
{"Target gene": "EPHA4 (GeneID 2043)", "robust z-score, siRNA alone": 0.726, "viability, knock-down alone (DMSO) (fraction of control)": 1}
{"Target gene": "MAK (GeneID 4117)", "robust z-score, siRNA alone": 0.726, "viability, knock-down alone (DMSO) (fraction of control)": 1}
{"Target gene": "MAPKAPK2 (GeneID 9261)", "robust z-score, siRNA alone": 0.726, "viability, knock-down alone (DMSO) (fraction of control)": 1}
{"Target gene": "ACVR1C (GeneID 130399)", "robust z-score, siRNA alone": -0.408, "viability, knock-down alone (DMSO) (fraction of control)": 0.898}
{"Target gene": "MKNK2 (GeneID 2872)", "robust z-score, siRNA alone": 0.511, "viability, knock-down alone (DMSO) (fraction of control)": 0.981}
{"Target gene": "MAP3K3 (GeneID 4215)", "robust z-score, siRNA alone": "-4.22 (active)", "viability, knock-down alone (DMSO) (fraction of control)": 0.553}

Only “robust z-score, siRNA alone” (2 entries from above):
MKNK2 (GeneID 2872): 0.511
MAP3K3 (GeneID 4215): -4.22 (active)

The list goes on.
{"Target gene": "DGKG (GeneID 1608)", "robust z-score, siRNA alone": 0.205, "viability, knock-down alone (DMSO) (fraction of control)": 0.953}
{"Target gene": "EPHA6 (GeneID 285220)", "robust z-score, siRNA alone": "-4.92 (active)", "viability, knock-down alone (DMSO) (fraction of control)": 0.491}
{"Target gene": "RPS6KL1 (GeneID 83694)", "robust z-score, siRNA alone": 0.726, "viability, knock-down alone (DMSO) (fraction of control)": 1}
{"Target gene": "NME6 (GeneID 10201)", "robust z-score, siRNA alone": 0.0485, "viability, knock-down alone (DMSO) (fraction of control)": 0.939}
{"Target gene": "CDK13 (GeneID 8621)", "robust z-score, siRNA alone": 0.726, "viability, knock-down alone (DMSO) (fraction of control)": 1}
{"Target gene": "LRRK1 (GeneID 79705)", "robust z-score, siRNA alone": 0.358, "viability, knock-down alone (DMSO) (fraction of control)": 0.967}
{"Target gene": "EPHA7 (GeneID 2045)", "robust z-score, siRNA alone": 0.453, "viability, knock-down alone (DMSO) (fraction of control)": 0.975}
{"Target gene": "CDK5R2 (GeneID 8941)", "robust z-score, siRNA alone": 0.726, "viability, knock-down alone (DMSO) (fraction of control)": 1}
{"Target gene": "TESK1 (GeneID 7016)", "robust z-score, siRNA alone": 0.726, "viability, knock-down alone (DMSO) (fraction of control)": 1}
{"Target gene": "XYLB (GeneID 9942)", "robust z-score, siRNA alone": 0.726, "viability, knock-down alone (DMSO) (fraction of control)": 1}
{"Target gene": "ARAF (GeneID 369)", "robust z-score, siRNA alone": 0.402, "viability, knock-down alone (DMSO) (fraction of control)": 0.971}
{"Target gene": "BUB1B (GeneID 701)", "robust z-score, siRNA alone": -1.66, "viability, knock-down alone (DMSO) (fraction of control)": 0.785}
